This passage reports binding results from US7452977.

Results are given in words; binding and its absence hold for the method and conditions named. Binding seen in cells or lysates may run through a third protein. Some binding calls cover weakened binding; strength is not graded here.

For this test, the target named is recombinant RelA homodimer, Q04206. The test can be described thus: co-immunoprecipitation with anti-RelA antisera. Conditions: remark: other sources report otherwise.

B1: IκBα, P25963 1-317 (protein)
chain: MFQAAERPQEWAMEGPRDGLKKERLLDDRHDSGLDSMKDEEYEQMVKELQEIRLEPQEVPRGSEPWKQQLTEDGDSFLHLAIIHEEKALTMEVIRQVKGDLAFLNFQNNLQQTPLHLAVITNQPEIAEALLGAGCDPELRDFRGNTPLHLACEQGCLASVGVLTQSCTTPHLHSILKATNYNGHTCLHLASIHGYLGIVELLVSLGADVNAQEPCNGRTALHLAVDLQNPDLVSLLLKCGADVNRVTYQGYSPYQLTWGRPSTRIQQQLGQLTLENLQMLPESEDEESYDTESEFTEFTEDELPYDDCVFGGQRLTL
Turning to B1, the binding result is on record as “binds”.
